# Measured values: PubChem BioAssay AID1347075 (National Center for Advancing Translational Sciences (NCATS), 2019)
# Screen size: about 400,000 compounds; about 5,500 (1.4%) were called active. Inconclusive means that the source gave no clear call. Such entries were picked first, then a sample of the others. Calls follow the shape of the dose curve; as a rule, active = well fitted cell-killing curve with a large enough effect; inconclusive = small, poorly fitted or top-dose-only effect, or effect the other way; inactive = flat fitted curve, though single readings scatter. Potencies beside an inconclusive call are fits to weak or partial responses and may not hold up.
# Test: qHTS assay for MDR1-selective chemotherapeutics: Primary screen using the parental adenocarcinoma cell KB-3-1; also: nearly all actives have a fitted effect of over 60% in size
# Conditions: KB-3-1 viability, CellTiter-Glo ATP luminescence, 72 h; activity change, negative = cytotoxic: at 46.1 µM (top of the series)
# How it was run: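 Viability of parental KB-3-1 cells, measured by CellTiter-Glo luminescence, followed a 72 h incubation at 37 °C with pinned compounds in phenol-red-free DMEM containing 10% FBS.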
# % is scaled to controls: 0 for no effect and ±100 for the full control effect; potency is read from the fitted curve at half-maximal effect.
SMILES,Potency,"activity change, negative = cytotoxic"
Cc1ccc(S(=O)(=O)/N=C2\C=C(Nc3ccc(O)cc3)C(=O)c3ccccc32)cc1,active: 4.11 µM,
Cc1cc(Br)cn2c(Cc3ccccc3)c(-c3ccc(F)cc3)nc12,inactive,
CC(=O)c1ccc(OCC(=O)OCC(=O)N(CC(C)C)c2c(N)n(Cc3ccccc3)c(=O)[nH]c2=O)cc1,"inconclusive: 29.1 µM [cytotoxic, single point]",
CCn1c2ccccc2c2cc(NS(=O)(=O)c3ccccc3C)ccc21,active: 16.4 µM,
Cc1cccc(NC(=O)CCC(=O)N/N=C/c2cc([N+](=O)[O-])ccc2O)c1,"inconclusive: 25.9 µM [cytotoxic, single point]",
O=C1C2CCCN2C(c2ccc(Cl)cc2)N1c1nccs1 (stereo not given),inactive,
Cc1cc[n+](C2CCCCC2)cc1,"inconclusive: 16.4 µM [cytotoxic, single point]",
O=C(Nc1nc2ccccc2[nH]1)c1cccc(S(=O)(=O)N2CCOCC2)c1,"inconclusive: 20.6 µM [rising, partial curve, poor fit]",
CC1(C)CC(/C=C/c2ccccc2)=Nc2ccccc2N1,"inconclusive: 20.6 µM [cytotoxic, single point]",
O=C(Cn1cc(S(=O)(=O)Cc2cccc(Cl)c2)c2ccccc21)Nc1ccccc1Cl,"inconclusive: 14.6 µM [rising, partial curve, poor fit]",
C[C@@H](NC(=O)OC(C)(C)C)c1nnc(S(=O)(=O)Cc2ccccc2)o1,"inconclusive: 23.1 µM [cytotoxic, single point]",
CCOc1ccc(N(C)S(=O)(=O)c2cc(-c3cc(C)no3)ccc2C(C)C)cc1,"inconclusive: 20.6 µM [cytotoxic, single point]",
Cn1c(SCC(=O)Nc2cccnc2Cl)nnc1-c1ccco1,inactive,
CC(C)C(=O)Nc1nnc(SCC(=O)NC2CCCC2)s1,inactive,
O=C(Nc1cccc(C(F)(F)F)c1)C1Cc2c(-c3cccc(F)c3)ccnc2O1 (stereo not given),"inconclusive: 29.1 µM [cytotoxic, partial curve, poor fit]",
O=C(Nc1ccc(Cl)cc1)N1CCCN(c2ccc(C(F)(F)F)cc2[N+](=O)[O-])CC1,"inconclusive: 29.1 µM [cytotoxic, single point]",
O=C(Nc1cccn(Cc2c(Cl)cccc2Cl)c1=O)c1c(Cl)cccc1Cl,active: 20.6 µM,
O=C(c1ccc(Br)cc1)C(CN1CCOCC1)c1ccccc1 (stereo not given),"inconclusive: 29.1 µM [cytotoxic, single point]",
Cc1ccc(S(=O)(=O)Oc2ccccc2/C=N/NC(N)=S)cc1,active: 6.51 µM,
CCOC(=O)C1=CCC(c2ccc(C#N)cc2)N(S(=O)(=O)c2ccc(C)cc2)C1 (stereo not given),inactive,
CS(=O)(=O)c1ccc(Cl)c(NC(=O)c2cccc(-n3cnnn3)c2)c1,"inconclusive: 16.4 µM [rising, single point]",
O=C(Nc1ncc(Cc2cccc(Cl)c2Cl)s1)c1ccc([N+](=O)[O-])cc1,"inconclusive: 9.2 µM [cytotoxic, partial curve, poor fit]",
CCN(CC(=O)Nc1c(F)cccc1F)C(=O)/C=C/c1ccc(S(=O)(=O)N2CCCCCC2)cc1,"inconclusive: 13 µM [cytotoxic, partial curve, poor fit]",

SMILES,Potency,"activity change, negative = cytotoxic"
COC(=O)c1cc(NC(=O)CN(c2ccc(OC)cc2)S(=O)(=O)c2ccc(F)cc2)ccc1Cl,"inconclusive: 25.9 µM [cytotoxic, single point]",
CCN(CC)S(=O)(=O)c1ccc(C)c(NC(=O)CSc2ncc(C(F)(F)F)cc2Cl)c1,inactive,
COc1cc(/C=c2\sc3nc(=O)c(-c4ccccc4)nn3c2=O)ccc1OCCC(C)C,"inconclusive: 29.1 µM [rising, single point]",
Cc1ccc(NC(=O)C2(C)CCN2C(=O)CC(c2ccccc2)c2ccccc2)cc1 (stereo not given),inactive,
Cc1cc(NC(=O)CC(F)(F)F)n(-c2ccccc2)n1,,inconclusive: 1.91%
CCN(Cc1nc2cc(Cl)ccc2c(=O)[nH]1)C(=O)c1cccc(OCc2c(C)noc2C)c1,,inconclusive: -35.8% [cytotoxic]
COc1cc(C(=O)Oc2cccc(/C=N/NC(=O)c3cc(C)[nH]n3)c2)cc(OC)c1OC,inactive,
COc1ccc2c(c1)c(C(=O)CN(C)C)c(C)n2C,"inconclusive: 0.184 µM [cytotoxic, full curve]",
COc1ccc2c(COC(=O)[C@H](C)NS(=O)(=O)c3ccccc3F)cc(=O)oc2c1,,inconclusive: 11.2%
COc1ccc(N2CCN(c3nc4ccc(C(=O)c5ccccc5)cc4n4cnnc34)CC2)cc1,inactive,
COc1ccc(-n2nc(C(=O)NCC(=O)N3CCN(c4ccccc4F)CC3)c3ccccc3c2=O)cc1,inactive,
O=C(COC(=O)c1cc(=O)[nH]c(=O)[nH]1)Nc1cccc(S(=O)(=O)N2CCOCC2)c1,inactive,
Cc1cccc2c1-c1sc(C(=O)NCCCN3CCN(c4ccccc4F)CC3)cc1CO2,inactive,
COc1ccc(Oc2cc(NN3CCCCC3)c([N+](=O)[O-])cc2[N+](=O)[O-])cc1OC,inactive,
CC(C)Cn1c(N)c(C(=O)COC(=O)c2ccc3c(c2)OCCO3)c(=O)n(C)c1=O,"inconclusive: 11.6 µM [cytotoxic, partial curve, poor fit]",
O=C1C=C(C#Cc2ccc(Oc3ccccc3)cc2)C[C@@H](c2ccc(F)cc2)C1,"inconclusive: 29.1 µM [cytotoxic, single point]",
COc1ccc(-c2noc(CCC(=O)O)n2)cc1,inactive,
COc1ccc(-n2c(-c3ccccc3)c[n+]3c2CCC3)cc1,active: 4.11 µM,
COc1cccc(NC(=S)NC(=O)c2cncc(Br)c2)c1,"inconclusive: 29.1 µM [cytotoxic, single point]",
CCN1/C(=C/C(=S)Nc2ccccc2)Sc2ccccc21,"inconclusive: 16.4 µM [cytotoxic, partial curve, poor fit]",
O=S(=O)(c1ccc(SCc2cccc(Cl)c2)nc1)N1CCCC1,inactive,
COc1ccc(C(=O)OCC(=O)Nc2sccc2C(N)=O)cc1[N+](=O)[O-],inactive,

# Among those listed so far, these have bromine:
SMILES,Potency,"activity change, negative = cytotoxic"
Cc1cc(Br)cn2c(Cc3ccccc3)c(-c3ccc(F)cc3)nc12,inactive,
O=C(c1ccc(Br)cc1)C(CN1CCOCC1)c1ccccc1 (stereo not given),"inconclusive: 29.1 µM [cytotoxic, single point]",
COc1cccc(NC(=S)NC(=O)c2cncc(Br)c2)c1,"inconclusive: 29.1 µM [cytotoxic, single point]",
